Test results as given in PubChem BioAssay AID493014 (National Center for Advancing Translational Sciences (NCATS), 2011).
Some of the results follow. Shown are side measurements of this screen, not its main read-out; they come without a call. Most of these compounds were active or inconclusive in the main read-out, so they are no random draw. Words in brackets tell the shape of the fitted curve; partial curves, single points and poor fits give uncertain potencies.

Assay: qHTS Assay to Find Inhibitors of Chronic Active B-Cell Receptor Signaling
Settings: ABC-DLBCL IkBa-CBG/CBR reporter, luminescence ratio (green luciferase fused to IkBa over red control in TMD8 lymphoma cells), 4 h
Summary of the method: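 TMD8 human ABC-DLBCL cells with doxycycline-inducible IκBα–green luciferase fusion and unfused red luciferase, in 0.5% FBS medium; compounds up to 46 uM, 4 h at 37C. Green/red luminescence ratio, filter-overlap corrected, fitted to concentration-response curves.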

[1] = measured here: CBR red luminescence, cell number
[2] = measured here: IkBa-CBG green luminescence

SMILES	AC50 [1]	AC50 [2]
COc1cccc(/C=N/Nc2nc(Nc3ccc([N+](=O)[O-])cc3)nc(N3CCCC3)n2)c1O	2.51 µM [falling, full curve, poor fit]	
Cc1ccnc(NC(=O)c2ccc(N3C(=O)CCC3=O)cc2)c1	10 µM [falling, partial curve, poor fit]	
O=C(NCCc1ccccc1)c1ccccc1NC(=O)C1CCCCC1C(=O)O (stereo not given)	12.6 µM [falling, single point]	
Cc1ccc(N=C2NC(=O)/C(=C/c3cccnc3)S2)c(C)c1	22.4 µM [falling, single point]	
NNC(=O)C(Cc1cnc[nH]1)NC(=O)OCc1ccccc1 (stereo not given)	7.08 µM [rising, single point]	
O=[N+]([O-])c1ccc(Oc2cccc(C(F)(F)F)c2)nc1	6.31 µM [rising, partial curve]	
CC(O)c1nc2ccccc2n1C1CCCCC1 (stereo not given)	4.11 µM [rising, partial curve]	
Cc1ccc(NC(c2ccccc2)c2nc3ccccc3[nH]c2=O)cc1 (stereo not given)	3.55 µM [falling, partial curve, poor fit]	
Clc1ccc(-c2[nH]ncc2N=Nc2ccccc2)cc1	12.6 µM [rising, single point]	
COc1cc(/C=N/Nc2ncc(C(F)(F)F)cc2Cl)cc(OC)c1O	20.6 µM [rising, partial curve, poor fit]	
COc1ccc(Br)cc1C(=O)Nc1ccc(C(=O)NCC(C)C)cc1	17.8 µM [rising, partial curve, poor fit]	
CC(=O)N1CCN(c2ccc(NC(=O)c3ccc([N+](=O)[O-])o3)cc2Cl)CC1	7.94 µM [falling, partial curve, poor fit]	
O=C(O)c1ccc(/C=N/Nc2ccc(F)cc2F)cc1	2.82 µM [falling, partial curve]	
COc1ccc(NC(=O)c2ccc(NC(=O)CSc3nccc(=O)[nH]3)cc2)cc1	5.62 µM [falling, single point]	
C/C(=N\Nc1nc2ccccc2s1)c1ccc(Br)s1	5.01 µM [falling, full curve]	
CSc1ccc(CN2CCC(C(=O)NCc3ccc(C)cc3)CC2)cc1	0.0891 µM [rising, full curve, poor fit]	
CN(C)CCCN(C(=O)c1ccco1)c1nc(-c2ccc(Cl)cc2)cs1	17.8 µM [falling, partial curve, poor fit]	
O=C(N/N=C/c1c(O)n(-c2ccc(Cl)cn2)c(=O)c2ccccc12)C1CC1	18.4 µM [falling, single point]	
COc1ccccc1NC(=O)/C=C\C(=O)O	22.4 µM [falling, single point]	
O=[N+]([O-])c1ccc(Sc2nnnn2-c2ccccc2)c(Cl)c1		29.1 µM [falling, single point]

Three entries already listed, ordered by SMILES length, rising.
SMILES	AC50 [1]	AC50 [2]
CSc1ccc(CN2CCC(C(=O)NCc3ccc(C)cc3)CC2)cc1	0.0891 µM [rising, full curve, poor fit]	
COc1cc(/C=N/Nc2ncc(C(F)(F)F)cc2Cl)cc(OC)c1O	20.6 µM [rising, partial curve, poor fit]	
CC(=O)N1CCN(c2ccc(NC(=O)c3ccc([N+](=O)[O-])o3)cc2Cl)CC1	7.94 µM [falling, partial curve, poor fit]	

Next part

SMILES	AC50 [1]	AC50 [2]
COc1cc(CNc2nc(C)c([N+](=O)[O-])c(C)c2C#N)cc(OC)c1	14.6 µM [rising, partial curve, poor fit]	
CCCN(C(=O)c1cccs1)c1c(N)n(Cc2ccccc2)c(=O)[nH]c1=O	7.31 µM [rising, partial curve, poor fit]	
CC(=O)c1c(OC(=O)c2ccco2)c2ccccc2n1C	6.51 µM [falling, single point]	
CCc1nc(SCC(=O)N2CCCC2)c2ccccc2n1		4.11 µM [rising, partial curve, poor fit]
CCCOc1ccc(N2C(=O)CC(N3CCN(c4ccc([N+](=O)[O-])cc4)CC3)C2=O)cc1 (stereo not given)	7.08 µM [falling, full curve, poor fit]	
COc1ccc(NC(=O)CSc2nnc3ccc(-c4ccncc4)nn23)cc1OC	35.5 µM [falling, single point]	
NC(=O)c1ccsc1NC(=O)COC(=O)c1c(F)cccc1Cl	2.06 µM [falling, full curve, poor fit]	
CN(C)c1ccc(/C=C2\Oc3ccc(C#Cc4cccc(N)c4)cc3C2=O)cc1	11.6 µM [rising, single point]	
CN(C)C(CNC(=O)c1cccc(C#N)c1)c1ccco1 (stereo not given)	10 µM [rising, single point]	
CC(=O)Nc1ccc(N/C=C/C(=O)c2ccc(C)o2)cc1	35.5 µM [rising, single point]	
O=C(c1ccco1)N1CCc2[nH]nc(-c3ccccc3)c2C1	15.8 µM [falling, single point]	
Cn1c(=O)cc(NCCc2ccccc2)[nH]c1=O	0.92 µM [falling, full curve, poor fit]	
CCCCOC(=O)c1ccc(NC(=O)COC(=O)CSc2nc(C)cc(C)n2)cc1	16.4 µM [rising, partial curve]	
CC(C)(C)c1ccc(OCCC(=O)Nc2cccc(S(=O)(=O)N3CCCCC3)c2)cc1	8.2 µM [falling, partial curve, poor fit]	
CCOc1ccccc1C(=O)OCC(=O)Nc1nnc(-c2ccccc2)o1	13 µM [falling, single point]	
COCc1ccc(-c2c(-c3cc(OC)cc(OC)c3)oc(=O)c3cc(OC)c(OC)cc23)cc1	0.731 µM [rising, full curve, poor fit]	
O=C1S/C(=C\c2ccc(O)c([N+](=O)[O-])c2)C(=O)N1Cc1cccc([N+](=O)[O-])c1	35.5 µM [falling, single point]	
Cc1c(-c2cccc(Cl)c2)nc2ccccc2c1C(=O)OCC(=O)N(C)C1CCS(=O)(=O)C1 (stereo not given)		10 µM [rising, partial curve, poor fit]
Cc1cccc(NC(=O)c2ccc3[nH]c(=O)c(=O)[nH]c3c2)n1	6.31 µM [falling, partial curve, poor fit]	
Cc1ccc([C@@H]2CC=C(C(=O)O)[C@H](c3cccc(Cl)c3)N2S(=O)(=O)c2ccc(C)cc2)cc1		14.6 µM [rising, partial curve, poor fit]
